Test results published in patent US5733730, “Telomere repeat binding factor and diagnostic and therapeutic use thereof” (The Rockefeller University).

Amino acid sequences for entries named in this document (tags omitted). A change or cut given only in a name is not applied to a line headed by its entry.
UniProt P70371: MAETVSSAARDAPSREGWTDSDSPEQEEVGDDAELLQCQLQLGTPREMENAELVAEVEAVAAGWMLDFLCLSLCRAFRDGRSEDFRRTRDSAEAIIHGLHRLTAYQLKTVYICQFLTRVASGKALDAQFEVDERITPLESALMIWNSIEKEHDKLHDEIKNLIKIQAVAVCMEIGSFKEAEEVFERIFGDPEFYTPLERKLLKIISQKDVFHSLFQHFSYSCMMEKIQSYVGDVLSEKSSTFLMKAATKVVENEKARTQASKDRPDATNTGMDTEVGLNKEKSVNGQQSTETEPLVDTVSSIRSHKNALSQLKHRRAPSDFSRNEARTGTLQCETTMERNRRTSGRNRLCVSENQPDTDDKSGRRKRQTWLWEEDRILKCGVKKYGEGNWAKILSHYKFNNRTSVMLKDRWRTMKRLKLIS

Experiments:
[1] = molecular target: TRF (MTRF12, full length) (Mus musculus) (UniProt P70371); assay: competition with a labelled probe; details: protein translated in vitro, only the site is given
[2] = molecular target: T1, TRF (HTRF4.1, TRF1) partial ORF from N-terminal XhoI site to stop (Homo sapiens) (UniProt P54274); assay: competition with a labelled probe; details: plasmid competitor with long repeat array; protein translated in vitro; protein details: His6 (pET28b, Novagen) N-terminal fusion; only the site is given
T1 sequence (limits assumed): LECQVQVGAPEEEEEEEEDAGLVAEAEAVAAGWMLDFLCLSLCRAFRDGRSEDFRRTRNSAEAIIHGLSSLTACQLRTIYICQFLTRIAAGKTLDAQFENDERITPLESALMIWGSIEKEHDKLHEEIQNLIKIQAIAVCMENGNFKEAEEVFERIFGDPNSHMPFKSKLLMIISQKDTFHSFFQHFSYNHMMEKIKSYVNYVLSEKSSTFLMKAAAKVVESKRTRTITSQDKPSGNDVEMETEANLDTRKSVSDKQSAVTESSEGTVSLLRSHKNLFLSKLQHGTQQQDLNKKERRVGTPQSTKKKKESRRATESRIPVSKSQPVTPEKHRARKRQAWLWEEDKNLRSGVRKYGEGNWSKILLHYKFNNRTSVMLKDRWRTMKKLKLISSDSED

| Sequence | binding result ([1]; plasmid competitor, printed TYGGGG in Example 4) | binding result [2] | binding result ([1]; plasmid competitor with long repeat array) |
| --- | --- | --- | --- |
| TTGGGG (double strand) [TTGGGG repeat array plasmid competitor] | no binding | no binding |  |
| TTAGGC (double strand) [TTAGGC repeat array plasmid competitor] |  | no binding | no binding |

A negative result means that nothing was seen under these conditions. The exact form of at least one protein or probe is not confirmed. For some of these results: Protein sequences can lack the tags named with them.
